# Source: the supplement of paper PMC3334620
# The full ranking holds about 33,000 sequences; the median of “E-score (-0.5 to 0.5)” is about -8e-05, and the highest 2% start at about 0.23. The list shows a part of the results.
# Target: T1, Nrg2 (UniProt P38082)
# T1 sequence: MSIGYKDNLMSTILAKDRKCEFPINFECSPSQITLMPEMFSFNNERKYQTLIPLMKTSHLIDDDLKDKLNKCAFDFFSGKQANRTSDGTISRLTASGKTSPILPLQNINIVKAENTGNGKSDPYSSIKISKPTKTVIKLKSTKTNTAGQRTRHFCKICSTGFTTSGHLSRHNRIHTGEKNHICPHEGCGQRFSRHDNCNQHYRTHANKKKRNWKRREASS
# Test: PBM E-score (8-mer binding enrichment) (E-score (-0.5 to 0.5)); higher = stronger / more preferred TF binding
# Conditions: protein concentration: 100 nM; construct: GST-full length
# How it was run: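 Detection of bound protein used fluorescent anti-GST, with scans normalised by masliner. The proteins were GST-tagged yeast transcription factors applied at about 100-200 nM to universal all-10-mer Agilent arrays made double-stranded by primer extension. Each ungapped eight-base word, pooled with its reverse complement, was scored with an E-score from the Universal PBM Analysis Suite.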
row,Sequence,PBM E-score
1,CACCCAAA,0.035
2,CTTTTGCA,0.121
3,AAATTCAG,0.143
4,CCATAGGA,-0.212
5,TCCAGGAA,-0.0583
6,ATCCAGAG,0.0996
7,AGTCAGCG,-0.0968
8,GAACCACC,0.14
9,GTGCAAAA,0.04
10,CTTGACGC,-0.123
11,TCGCAAGA,-0.0263
12,TCCCCTAA,0.146
13,ACTGCTGC,-0.0558
14,GTCGGAGA,-0.126
15,ACCAGCTG,-0.069
16,ACTTGCGG,-0.214
17,AAGTCAGG,0.117
18,TACGTACA,0.0349
19,CGCTAGGC,-0.269
20,GGCCCCAA,-0.0979
21,CATATCAA,0.221
22,CAGGTATA,0.0141
23,AAGATAGA,0.0579
24,ACGTATTC,-0.0109
25,AACGCTGG,-0.0107

# An excerpt of these results, tab-delimited:
row	Sequence	PBM E-score
3	AAATTCAG	0.143
4	CCATAGGA	-0.212
5	TCCAGGAA	-0.0583
6	ATCCAGAG	0.0996
7	AGTCAGCG	-0.0968

# The list goes on:

row,Sequence,PBM E-score
1,AGCCGAAT,0.0696
2,GCTTCGCC,-0.25
3,CCTTATCG,-0.0611
4,AGGTACGC,0.0304
5,CTCAGGAG,-0.205
6,ACGGCTGC,-0.202
7,CACCAGTG,-0.0747
8,CCATCGAA,0.0694
9,CAGACTAG,-0.182
10,AGTTTCAC,0.0923
11,CGCTGGAC,-0.0616
12,CAGTTCCC,0.0895
13,ACTTCCGC,0.0384
14,AGAGTGGG,-0.0376
15,ATAATCGA,0.0835
16,CAGTTGGG,-0.00385
17,ACCGTCGC,-0.0276
18,ACGCATAC,0.0429
19,CGCAGTCA,-0.0898
20,ACATGACT,-0.0833
21,ACCTGTGG,-0.0447
22,CTATTGCA,-0.0631
23,CAAATAGA,0.296
24,CTCCTAGA,-0.0808
25,AGAACCCT,0.199

row,Sequence,PBM E-score
1,AGCTGTTA,-0.165
2,GTACAAGA,0.0045
3,ATTGAGCA,0.0434
4,AAGCTGTA,0.118
5,ACCCTCGA,0.125
6,AAAATGAC,0.0768
7,ACATTAAT,0.0647
8,CTTCAATC,-0.0473
9,CGGAGGGC,-0.142
10,ATAACCCA,-0.0462
11,GATTGTCA,-0.0408
12,CCGTTGGA,-0.141
13,AGAGAGAG,-0.166
14,AACCTAGC,-0.0348
15,TGCGTCAA,-0.0115
16,CAATTCCC,0.0815
17,CATTGCAC,0.165
18,TCCGACGA,0.0566
19,ATCCGAAC,0.0668
20,AGAGCCGA,-0.0254
21,AGCTTTCC,-0.116
22,AGGTGAGA,-0.0485
23,GGCTATTA,0.0568
24,CTAGTACA,0.0576
25,CTCTGTGA,0.112

row,Sequence,PBM E-score
1,CGTACCAA,0.101
2,ACGTGATG,0.0423
3,ACCACGAA,-0.135
4,GTGGACGA,0.0664
5,AAACAGCG,0.0913
6,ATGGCAGC,-0.0143
7,CTCACTGC,-0.134
8,AGGAAAAC,0.151
9,TTTAAAAA,-0.137
10,GACTATTA,-0.0192
11,ATAACGAT,-0.019
12,AGGGAATC,0.0536
13,ATGGATAA,0.0508
14,CATGTAGG,0.092
15,AGCCGTCG,0.0289
16,AGGGAAGA,-0.122
17,ACTGCGCG,0.0745
18,AAATACTG,0.0929
19,CACGGAGG,-0.108
20,CAAGTATA,-0.171
21,CATACGGG,-0.132
22,CCCACAAC,-0.0138
23,CGGTGGGA,-0.0593
24,AAAACTCT,-0.145
25,CACTCGCA,-0.0229

row,Sequence,PBM E-score
1,ATAGGCCA,0.00867
2,AGCGTGCA,-0.00392
3,ATTCACTG,-0.163
4,CTAATGGC,0.0859
5,GATACTGC,0.137
6,CACCGGGG,-0.413
7,ATCTGAAA,0.0543
8,AGACGTCC,-0.149
9,CCCTGTAG,0.128
10,GACAAGTA,0.0148
11,ACAAACCG,-0.154
12,CGCTCGAA,0.0436
13,AGGTCCTG,-0.123
14,AGAGCTTC,-0.0634
15,AAACCACA,0.134
16,ACGAAACG,-0.0152
17,TAGATAAA,0.0121
18,GGTGGATA,-0.0533
19,CACTCAAC,0.227
20,GCTGCTTA,-0.213
21,GACTAACC,-0.0733
22,ACATAGTG,0.103
23,CCAATTGG,0.106
24,CCGTTTTA,0.117
25,CAACCCCC,-0.402

row,Sequence,PBM E-score
1,CGGCCCGA,0.0102
2,CAAGTCCA,0.0256
3,CAACACGA,0.127
4,CGAATAAG,-0.0297
5,AACGCAAG,0.0369
6,GTATCGTA,0.0702
7,TCGACCGA,-0.018
8,GCCTACGA,0.102
9,ACCACGCC,-0.279
10,AAGCAAGA,0.0236
11,ACCATTGA,-0.13
12,CTTATAGA,0.0633
13,GACAATCC,0.143
14,TAAGTCAA,0.0319
15,ACCGGGCG,-0.186
16,ATGGTTTC,-0.0123
17,CAATTGGA,0.0313
18,AGTACTGA,0.0453
19,ATGCTAGC,0.00027
20,ACTATCAG,-0.0384
21,CAGACCGC,0.13
22,AATCAGTC,0.0108
23,CCAAAAAC,0.161
24,AGATCTCG,0.0592
25,CACATTCA,-0.00281

row,Sequence,PBM E-score
1,TCGAGTAA,0.131
2,AGCTGTTG,0.133
3,AGGCGCCT,-0.0863
4,ATGAGAAG,-0.0215
5,ACGCGAGC,0.151
6,GAGGTCCA,-0.0725
7,CAAACTGG,0.0464
8,GCAGTAGC,-0.182
9,AACGAATA,0.00143
10,CACCCTCG,0.0261
11,ACGGGGAT,0.18
12,CTTGGGTC,0.0035
13,AGGCAATA,0.0391
14,TTGGAAAA,-0.0283
15,CGAGGCCG,-0.107
16,AAGTCTGA,-0.184
17,CTAGGGAC,0.00608
18,CACAGAAC,-0.162
19,GTGTCTCA,0.0319
20,CAGCCATA,-0.0469
21,AGTACGAC,0.105
22,AGCCATTC,0.0767

# Not a retest: entries from further up.
row,Sequence,PBM E-score
12,CCGTTGGA,-0.141
13,AGAGAGAG,-0.166
14,AACCTAGC,-0.0348
15,TGCGTCAA,-0.0115
16,CAATTCCC,0.0815
